Results from paper PMC3787057.
Results are given in words; binding and its absence hold for the method and conditions named. In cells and extracts the contact can be indirect. Some results given as binding are weak or reduced against the parent protein; the word gives no strength.

Molecular target: Cyclin-dependent kinase-5 (Cdk5) (human) (UniProt Q00535)
Assay: co-IP; hBMEC (hCMEC/D3) cell lysate in modified RIPA lacking ionic detergent, pre-cleared with sepharose-A slurry, protein A-sepharose CL-4B, Western blot; which of the two proteins was precipitated is not told

binding: binds
Substance: myocyte enhancer factor MEF2C (from UniProt Q06413 1-473)
